This note sets out measurements from patent publication US20090118285A1, “USE OF KCNQ-OPENERS FOR TREATING OR REDUCING THE SYMPTOMS OF SCHIZOPHRENIA” (H. Lundbeck A/S, priority 2006, published 2009).

This data set relates to sensitised behavioural response to amphetamine in mice. Put plainly: Amphetamine sensitisation: sensitised behavioural response to amphetamine in mice. The class given is in vivo, mouse. To be noted: ratio of the ED50 for baseline motility and the ED50 for the sensitised response.

The structures appear in SMILES notation. A value given as a limit tells only on which side of the number the result lay.

For `CCC(=O)Nc1c(Br)cc(N2CCOCC2)cc1C(F)(F)F` [N-(2-Bromo-4-morpholin-4-yl-6-trifluoromethyl-phenyl)-propionamide], the Therapeutic index is recorded as 2.

As for `CCOC(=O)Nc1ccc(NCc2c(C)cc(C)cc2C)cc1N` [[2-Amino-4-(2,4,6-trimethyl-benzylamino)-phenyl]-carbamic acid ethyl ester], the Therapeutic index was 3.

In the case of `COc1cc(N2CCOCC2)cc(C)c1NC(=O)CC1CCCC1` [2-Cyclopentyl-N-(2-methoxy-6-methyl-4-morpholin-4-yl-phenyl)-acetamide], the Therapeutic index came out at 2.

With `Cc1cc(N2CCOCC2)cc(C)c1NC(=O)CC(C)(C)C`, the Therapeutic index was above 1.

Regarding `Cc1cc(N2CCOCC2)cc(C)c1NC(=O)CC1CCCC1`, the Therapeutic index was 2.

On to `Cc1nc(N2CCOCC2)nc(C)c1NC(=O)CC1CCCC1` [2-Cyclopentyl-N-(4,6-dimethyl-2-morpholin-4-yl-pyrimidin-5-yl)-acetamide], for which the Therapeutic index was determined as 3.

As for `Cc1nc(N2CCOCC2)nc(C)c1NC(=O)Cc1ccc(F)cc1` [N-(4,6-Dimethyl-2-morpholin-4-yl-pyrimidin-5-yl)-2-(4-fluoro-henyl)-acetamide], the Therapeutic index was 5.

Take `CCOC(=O)Nc1ccc(NCc2ccc(F)cc2)cc1N`: the Therapeutic index is recorded as 2.

For `Cc1cc(N2CCOCC2)nc(C)c1NC(=O)CC(C)(C)C` [N-(2,4-Dimethyl-6-morpholin-4-yl-pyridin-3-yl)-3,3-dimethyl-butyramide], the Therapeutic index was found to be 2.

For `CCCCCC(=O)Nc1c(F)cc(N2CCOCC2)cc1F` [Hexanoic acid (2,6-difluoro-4-morpholin-4-yl-phenyl)-amide], the Therapeutic index is above 2.
